Results from one PubChem assay

The results are deposited in PubChem (AID2202234; NCATS, 2025).

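The 48-hour survival of the MECOM-rearranged AML line HNT-34 was tracked by a luminescent ATP-based reagent. Each compound was run as a dilution series that mostly topped out at 46 µM. The value is the concentration giving half of the fitted maximal loss of viability; smaller values mean stronger inhibitors. Calls come from the fitted dose curve, and inconclusive marks inhibition that is small, poorly fitted or seen only at the highest dose.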

Values are in µM. All entries here are filed as inconclusive. These entries are mostly ones the record files as inconclusive; other results of the assay are not listed here. Potencies fitted to partial, single-point or poorly fitting curves are rough. Some entries filed as inconclusive have a full curve. An entry listed twice with the same setting is a separate test.

{"smiles": "CC[C@@H](C)[C@H](NC(=O)[C@H](CC1CCCCC1)NC(=O)c1ccno1)C(=O)N1CCC2(CCc3ccccc32)CC1", "Potency (µM)": "0.0661", "curve as filed": "inhibitor, full curve, poor fit"}
{"smiles": "Cc1c(NC(=O)OCC2COCCN2)cn2ncnc(Nc3ccc4c(cnn4Cc4cccc(F)c4)c3)c12", "stereo": "centres unmarked", "Potency (µM)": "37.2", "curve as filed": "inhibitor, single point"}
{"smiles": "NC(=O)[C@H]1CCS[C@@H]2C[C@]3(CCCN3C(=O)Cc3ccc(NC(=O)COc4ccc(Cl)cc4Cl)cc3)C(=O)N12", "Potency (µM)": "8.328", "curve as filed": "inhibitor, full curve"}
{"smiles": "COc1ccc(CC2c3cc(OC)c(OC)cc3CC[N+]2(C)CCC(=O)OCCCCCOC(=O)CC[N+]2(C)CCc3cc(OC)c(OC)cc3C2Cc2ccc(OC)c(OC)c2)cc1OC", "stereo": "centres unmarked", "Potency (µM)": "16.62", "curve as filed": "inhibitor, partial curve"}
{"smiles": "Cc1c[nH]c2ncnc(N3CCC(CN)(C(=O)Nc4cccc(OC(=O)N(C)C)c4)CC3)c12", "Potency (µM)": "20.92", "curve as filed": "inhibitor, partial curve"}
{"smiles": "Cc1cccc(-c2[nH]c(C(C)(C)C)nc2-c2ccc3nccnc3c2)n1", "Potency (µM)": "26.33", "curve as filed": "inhibitor, single point"}
{"smiles": "CN1CCN(C(=O)c2ccc3cc(CCNc4ncnc5ccc(C#N)cc45)ccc3c2)CC1", "Potency (µM)": "18.64", "curve as filed": "inhibitor, partial curve"}
{"smiles": "CN(C)CCOc1ccc(/C(=C(/CCCl)c2ccccc2)c2ccccc2)cc1", "Potency (µM)": "37.2", "curve as filed": "inhibitor, single point"}
{"smiles": "Cc1c[nH]c2ncnc(N3CCC(CN)(C(=O)Nc4cccc(OC(=O)N(C)C)c4)CC3)c12", "Potency (µM)": "16.62", "curve as filed": "inhibitor, partial curve"}
{"smiles": "CN(Cc1cnc2nc(N)nc(N)c2n1)c1ccc(C(=O)N[C@@H](CCC(=O)O)C(=O)O)cc1", "Potency (µM)": "0.7422", "curve as filed": "inhibitor, full curve, poor fit"}
{"smiles": "CC(C)(C)c1cc(NC(=O)Nc2ccc(-c3cn4c(n3)sc3cc(OCCN5CCOCC5)ccc34)cc2)no1", "Potency (µM)": "16.62", "curve as filed": "inhibitor, partial curve, poor fit"}
{"smiles": "CN1C(=O)C[C@H](C(=O)N[C@@H](Cc2cnc[nH]2)C(=O)N2CCC[C@@H]2C(N)=O)NC1=O", "Potency (µM)": "33.15", "curve as filed": "inhibitor, single point"}
{"smiles": "CC1(CN2CCC(n3c(=O)[nH]c4ccccc43)CC2)OCc2ccccc2-n2cccc21", "stereo": "centres unmarked", "Potency (µM)": "37.2", "curve as filed": "inhibitor, single point"}
{"smiles": "Cc1nc(NC(=O)N2CCC[C@H]2C(N)=O)sc1-c1ccnc(C(C)(C)C(F)(F)F)c1", "Potency (µM)": "18.64", "curve as filed": "inhibitor, partial curve"}
{"smiles": "COC(=O)C1=C(C)NC(c2ncc(F)cc2F)=N[C@@H]1c1ccc(F)cc1Cl", "Potency (µM)": "20.92", "curve as filed": "inhibitor, partial curve"}
{"smiles": "Cc1c(NC(=O)c2cc3c(s2)CCCC3)cccc1-c1cn(C)c(=O)c(Nc2ccc(C3C(=O)N(C)CCN3C)cc2)n1", "stereo": "centres unmarked", "Potency (µM)": "37.2", "curve as filed": "inhibitor, partial curve, poor fit"}
{"smiles": "COc1ccccc1N1CCN(CCN(C(=O)C2CCCCC2)c2ccccn2)CC1", "Potency (µM)": "18.64", "curve as filed": "inhibitor, partial curve"}
{"smiles": "Cc1nc2c([nH]1)CCN(C(=O)c1ccc(NC(=O)c3ccccc3-c3ccccc3)cc1)c1ccccc1-2", "Potency (µM)": "33.15", "curve as filed": "inhibitor, single point"}
{"smiles": "CC[C@H](NC(=O)[C@H](C)NC)C(=O)N1C[C@@H](O)C[C@H]1Cc1c(-c2[nH]c3cc(F)ccc3c2C[C@@H]2C[C@H](O)CN2C(=O)[C@H](CC)NC(=O)[C@H](C)NC)[nH]c2cc(F)ccc12", "Potency (µM)": "0.0661", "curve as filed": "inhibitor, full curve"}
{"smiles": "C=C1/C(=C\\C=C2/CCC[C@]3(C)[C@@H]([C@H](C)CCCC(C)(C)O)CC[C@@H]23)C[C@@H](O)C[C@@H]1O", "Potency (µM)": "33.15", "curve as filed": "inhibitor, single point"}
{"smiles": "Cc1nnc(C[C@@H]2C=C(c3ccc(Cl)cc3)c3ccccc3-n3c(C)nnc32)o1", "Potency (µM)": "0.6615", "curve as filed": "inhibitor, full curve"}

The first 2 entries again:

SMILES,Potency (µM),curve as filed
CC[C@@H](C)[C@H](NC(=O)[C@H](CC1CCCCC1)NC(=O)c1ccno1)C(=O)N1CCC2(CCc3ccccc32)CC1,0.0661,"inhibitor, full curve, poor fit"
Cc1c(NC(=O)OCC2COCCN2)cn2ncnc(Nc3ccc4c(cnn4Cc4cccc(F)c4)c3)c12 (centres unmarked),37.2,"inhibitor, single point"